Record: PubChem BioAssay AID1259308 (NCATS, 2017)

Aim: 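Genes whose loss raises luciferase production in HEK293 cells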 (primary screen)
System: human HEK293 embryonic kidney cells stably expressing firefly luciferase (HEK-CMV-Luc2-Hygro)
Reagent: single siRNA against human genes, 0.8 pmol siRNA per well
Duration: 72 h
Read-out: 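Luciferase light (ONE-Glo) measured on one replicate plate set and viability (CellTiter-Glo) on the other, scaled to a negative control siRNA, with robust z-scores and luciferase per cell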
Direction: total luciferase, z-score and total luciferase, % of control: higher = more reporter protein produced
Hit rule: 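An siRNA counts as active if its total luciferase robust z-score exceeds 3; genes with two or more such siRNAs out of three were retested with fresh siRNAs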
Meaning of the calls: active = raised luciferase; inactive = no rise
The whole screen tested about 59,000 reagents; shown is a random part of them. In the full data, about 1,510 (2.6%) are marked active. 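Calls use total luciferase alone and ignore viability, so some active siRNAs may act by altering cell number.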 The numbers tell different reagents against one gene apart. Not all columns of the deposit are shown.

For RIPOR3 (RIPOR family member 3) #1, how do the results read?
total luciferase, z-score: -0.00927; total luciferase, % of control: 81.7; call: inactive

What did the screen give for RIPOR3 (RIPOR family member 3) #2?
total luciferase, z-score: 1.17; total luciferase, % of control: 105; call: inactive

With RIPOR3 (RIPOR family member 3) #3, what does the deposit list?
total luciferase, z-score: 1.29; total luciferase, % of control: 108; call: inactive

What did the screen give for COPS2 (COP9 signalosome subunit 2) #1?
total luciferase, z-score: 0.379; total luciferase, % of control: 89.4; call: inactive

What did the screen give for COPS2 (COP9 signalosome subunit 2) #2?
total luciferase, z-score: -0.629; total luciferase, % of control: 69.4; call: inactive

What is on record for COPS2 (COP9 signalosome subunit 2) #3?
total luciferase, z-score: -1.07; total luciferase, % of control: 60.6; call: inactive

With PSMC2 (proteasome 26S subunit, ATPase 2) #1, how do the results read?
total luciferase, z-score: -0.00782; total luciferase, % of control: 81.7; call: inactive

With PSMC2 (proteasome 26S subunit, ATPase 2) #2, how do the results read?
total luciferase, z-score: 0.362; total luciferase, % of control: 89.1; call: inactive

With PSMC2 (proteasome 26S subunit, ATPase 2) #3, what does the deposit list?
total luciferase, z-score: -1.27; total luciferase, % of control: 56.5; call: inactive

With NRIP1 (nuclear receptor interacting protein 1) #1, what does the deposit list?
total luciferase, z-score: -0.287; total luciferase, % of control: 76.2; call: inactive

What is on record for NRIP1 (nuclear receptor interacting protein 1) #2?
total luciferase, z-score: 0.603; total luciferase, % of control: 93.9; call: inactive

For NRIP1 (nuclear receptor interacting protein 1) #3, what was measured?
total luciferase, z-score: 0.618; total luciferase, % of control: 94.2; call: inactive
